Four molecules from doi:10.1101/2024.03.13.584817 (bioRxiv, 2024) can be followed below.

Where a chain is given by its changes, count along the chain named. No constants are given. Whether binding was seen depends on the method and setting. Some entries that bind do so weakly or less than the wild type. For part of these data: Tags and fused reporters may be left off the sequences shown.

In experiment [1] the target is T1, dROS1 ECR construct 2-3 (440-931), His-tagged (Drosophila) (UniProt P13368).
T1 sequence: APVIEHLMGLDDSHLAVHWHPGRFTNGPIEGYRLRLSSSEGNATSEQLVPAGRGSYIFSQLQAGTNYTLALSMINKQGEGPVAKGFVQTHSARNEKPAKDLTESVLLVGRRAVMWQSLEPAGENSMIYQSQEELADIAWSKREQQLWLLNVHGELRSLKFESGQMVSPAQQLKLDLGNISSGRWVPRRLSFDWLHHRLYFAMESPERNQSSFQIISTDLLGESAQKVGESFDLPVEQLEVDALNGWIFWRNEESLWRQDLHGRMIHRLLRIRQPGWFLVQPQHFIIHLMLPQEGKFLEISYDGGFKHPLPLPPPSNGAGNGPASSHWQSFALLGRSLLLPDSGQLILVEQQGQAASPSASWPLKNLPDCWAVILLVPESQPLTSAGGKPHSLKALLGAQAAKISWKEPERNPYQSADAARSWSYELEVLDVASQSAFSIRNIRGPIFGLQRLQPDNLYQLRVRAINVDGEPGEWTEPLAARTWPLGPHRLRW
Put plainly: BLI.

Experiment [2] has as its target T2, dROS1 ECR construct 1-4 (126-1298), His-tagged (Drosophila) (UniProt P13368).
T2 sequence: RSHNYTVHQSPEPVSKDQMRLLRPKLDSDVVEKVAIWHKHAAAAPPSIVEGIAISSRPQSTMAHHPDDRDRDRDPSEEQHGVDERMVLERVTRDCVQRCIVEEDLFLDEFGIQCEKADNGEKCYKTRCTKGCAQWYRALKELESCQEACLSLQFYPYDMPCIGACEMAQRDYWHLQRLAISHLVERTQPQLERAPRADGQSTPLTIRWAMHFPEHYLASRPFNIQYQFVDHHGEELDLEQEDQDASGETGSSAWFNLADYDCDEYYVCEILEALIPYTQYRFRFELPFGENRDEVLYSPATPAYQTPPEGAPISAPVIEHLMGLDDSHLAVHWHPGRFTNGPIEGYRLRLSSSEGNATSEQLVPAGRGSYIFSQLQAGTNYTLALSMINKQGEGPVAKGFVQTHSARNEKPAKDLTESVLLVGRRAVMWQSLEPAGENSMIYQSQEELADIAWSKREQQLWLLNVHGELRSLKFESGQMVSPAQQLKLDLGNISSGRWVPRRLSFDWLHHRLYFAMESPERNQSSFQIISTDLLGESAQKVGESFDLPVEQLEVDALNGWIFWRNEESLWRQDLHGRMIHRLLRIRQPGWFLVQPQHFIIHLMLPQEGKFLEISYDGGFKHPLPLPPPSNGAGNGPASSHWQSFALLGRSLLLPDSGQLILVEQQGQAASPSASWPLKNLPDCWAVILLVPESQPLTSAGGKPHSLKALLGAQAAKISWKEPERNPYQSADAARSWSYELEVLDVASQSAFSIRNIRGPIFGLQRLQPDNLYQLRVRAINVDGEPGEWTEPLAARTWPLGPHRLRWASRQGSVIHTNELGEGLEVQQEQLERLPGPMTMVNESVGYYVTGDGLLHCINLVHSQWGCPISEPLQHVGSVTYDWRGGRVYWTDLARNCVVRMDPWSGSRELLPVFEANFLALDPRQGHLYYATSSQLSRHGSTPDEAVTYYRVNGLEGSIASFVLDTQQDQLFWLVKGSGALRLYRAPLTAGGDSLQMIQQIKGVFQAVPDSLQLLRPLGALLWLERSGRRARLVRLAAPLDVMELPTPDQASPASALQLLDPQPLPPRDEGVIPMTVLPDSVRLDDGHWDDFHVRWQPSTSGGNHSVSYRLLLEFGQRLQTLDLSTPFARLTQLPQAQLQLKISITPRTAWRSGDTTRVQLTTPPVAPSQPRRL
In words: HDX-MS.

Experiment [3] addresses T1, dROS1 ECR construct 2-3 (440-931), His-tagged (Drosophila). In words: SPR.
Experiment [4] concerns the target dROS1 ECR construct 1-9 (126-2113) (Drosophila, UniProt P13368 126-2113). Put plainly: SPR. In general terms: Surface plasmon resonance follows binding to a sensor surface in real time, without labels.
Substrate in the experiment “HDX-MS”: T3, BOSS ECR (102-510), His-tagged (Drosophila) (UniProt P22815)
T3 sequence: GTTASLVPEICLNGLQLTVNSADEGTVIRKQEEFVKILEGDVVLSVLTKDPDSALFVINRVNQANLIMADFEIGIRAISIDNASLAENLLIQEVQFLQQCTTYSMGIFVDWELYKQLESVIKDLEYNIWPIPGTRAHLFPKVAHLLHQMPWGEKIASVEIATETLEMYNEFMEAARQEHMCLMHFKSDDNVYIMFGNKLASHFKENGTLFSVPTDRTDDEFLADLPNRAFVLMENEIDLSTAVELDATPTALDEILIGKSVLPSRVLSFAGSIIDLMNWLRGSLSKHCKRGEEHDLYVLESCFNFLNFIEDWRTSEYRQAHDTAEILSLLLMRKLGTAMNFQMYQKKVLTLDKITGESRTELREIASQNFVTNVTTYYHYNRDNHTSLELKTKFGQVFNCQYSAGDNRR
Put plainly: HDX-MS.

B1: BOSS ECR Δ117-130 (domain or fragment, UniProt P22815)
chain: GTTASLVPEICLNGLKQEEFVKILEGDVVLSVLTKDPDSALFVINRVNQANLIMADFEIGIRAISIDNASLAENLLIQEVQFLQQCTTYSMGIFVDWELYKQLESVIKDLEYNIWPIPGTRAHLFPKVAHLLHQMPWGEKIASVEIATETLEMYNEFMEAARQEHMCLMHFKSDDNVYIMFGNKLASHFKENGTLFSVPTDRTDDEFLADLPNRAFVLMENEIDLSTAVELDATPTALDEILIGKSVLPSRVLSFAGSIIDLMNWLRGSLSKHCKRGEEHDLYVLESCFNFLNFIEDWRTSEYRQAHDTAEILSLLLMRKLGTAMNFQMYQKKVLTLDKITGESRTELREIASQNFVTNVTTYYHYNRDNHTSLELKTKFGQVFNCQYSAGDNRR
For the molecule B1, the binding entry in experiment [1] is given as “binds weakly”.

B2: BOSS ECR (102-510), His-tag cleaved (domain or fragment, Drosophila, UniProt P22815 102-510, looked up)
chain: T3 sequence
On to B2, for which the binding result in experiment [2], in experiment [1] and in experiment [3] was “binds weakly” in each case.

B3: BOSSDEQ (domain or fragment, UniProt P22815 102-510)
chain: T3 sequence with L388D, L390Q
In the case of B3, the binding result in experiment [4] was “no binding”.

B4: dROS1 ECR construct 1-4 (126-1298) without his-tag (domain or fragment, UniProt P13368 126-1298)
chain: T2 sequence
On to B4, for which, in “HDX-MS”, the binding result was “binds weakly”.
